This experiment relates to human iPSC-derived 3D BrainSpheres. The experiment in a line: BrainSphere MEA assay (HD-MEA, 13-day exposure, concentration-response). The class given is cell-based. On the procedure: A volume of 1 ml of Tergazyme (1% solution in deionized water) was added to each well of the MaxTwo 6-Well Plate (MaxWell Biosystems) and incubated overnight under constant gyratory shaking (88 RPM) at 37 °C and 5% CO2. The next day, Tergazyme solution was removed, and plates were washed with distilled water and ethanol. After remaining ethanol was evaporated, wells were washed with PBS. Then, 200 µl of Poly-D-Lysine (Gibco, A38904 - 01) was added on top of the electrodes and incubated at 37 °C and 5% CO2 for 3 h (humidified). Poly-D-Lysine was then removed, and wells were coated with 100 µl of 0.1 mg/ml laminin coating solution (Sigma-Aldrich, L2020 - 1 mg) and incubated for 2 h at 37 ℃ and 5% CO2 (humidified). The laminin was removed after incubation. Using a 1 ml micropipette, 1 ml of medium containing BrainSpheres (7 weeks differentiated), approximately 25 BrainSpheres per ml, was plated on top of the HD-MEA chip (Fig. 1A). […]
The MaxTwo high-density microelectrode array system (MaxWell Biosystems AG, Zurich, Switzerland) was used to measure neural activity with MaxTwo 6-well plates, where every well includes an integrated chip with 26,400 platinum electrodes arranged in an area of 3.85 × 2.10 mm^2 ([…]) (Muller et al. [2015]). The data were recorded and analyzed with the MaxLab Live Software (version 22.2.22). […] Over the course of the 13-day experiment, the same selected regions and electrodes were measured using the MaxLab Live Network Assay (600 s recording time).
A custom analysis framework was used to extract the MaxLab Live neuronal metrics for the individual BrainSpheres. For this, electrodes comprising a single ROI (i.e., individual BrainSphere; Fig. 2D) were grouped using distance-based clustering (fcluster method of Scipy library, Python 3.7) and neural metrics were calculated for the clustered electrodes for every ROI separately. […] Ten MaxLab Live neural metrics (endpoints) were evaluated from the MaxLab live ActivityScan and Network Assay in this study. […]
The BrainSphere MEA assay measured changes in neural activity during a 13-day chemical exposure. […]

Structures are written as SMILES. Read-outs that look alike come from different tables or passages of the source.

The AC50 is the concentration at which the activity in the assay is half-maximal. On to `CN(C)C(=O)C(CCN1CCC(O)(c2ccc(Cl)cc2)CC1)(c1ccccc1)c1ccccc1` [Loperamide], for which the EC50 (read-out: Mean potency) was 2680 nM and the EC50 (read-out: Minimum potency) worked out at 30 nM. The AC50 (read-out: ac50 Spheroid.Burst.Frequency) amounted to 30 nM.

The values are drawn from article PMC12198282, “Application of a high-density microelectrode array assay using a 3D human iPSC-derived brain microphysiological system model for in vitro neurotoxicity screening of environmental compounds” (Archives of Toxicology, 2025).
